PubChem BioAssay AID1259254 – NCATS – 2017
The whole screen tested about 59,000 reagents; this is an unselected part. About 1,550 of all reagents (2.6%) count as active. 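G2 share is only a proxy for re-replication; each gene was hit by three separate siRNAs, and active genes were retested.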 Not all columns of the deposit are shown. No sequences are given here. Not given: the amount of reagent.

Screen: 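Gene knock-downs that lead to re-replication, shown by excess G2 DNA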 (primary screen)
System: human HCT116 colorectal cancer cells
Reagent: single siRNA against human genes
Duration: 3 days
Measured: 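Nuclei stained with Hoechst and imaged; cell-cycle phase assigned by DNA content; G2 share scaled per plate, non-targeting siRNA 0%, GMNN siRNA 100%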
Direction: G2 robust z-score: higher = more G2 cells, more excess DNA replication
Rule for the call: 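An siRNA counts as active if its G2 robust z-score lies at least 5 MADs above the screen median; here such calls match roughly 38% of GMNN control or more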

RIPOR3 (GeneID 140876) [SID160757931]
- G2 robust z-score: 0.704
- outcome: inactive

RIPOR3 (GeneID 140876) [SID160757932]
- G2 robust z-score: 0.411
- outcome: inactive

RIPOR3 (GeneID 140876) [SID160757933]
- G2 robust z-score: -1.22
- outcome: inactive

TPI1 (GeneID 7167) [SID160718278]
- G2 robust z-score: 1.14
- outcome: inactive

TPI1 (GeneID 7167) [SID160718279]
- G2 robust z-score: 0.889
- outcome: inactive

TPI1 (GeneID 7167) [SID160731849]
- G2 robust z-score: 5.07
- outcome: active

The list goes on; the last 2 above are carried over.
TPI1 (GeneID 7167) [SID160718279]
- G2 robust z-score: 0.889
- outcome: inactive

TPI1 (GeneID 7167) [SID160731849]
- G2 robust z-score: 5.07
- outcome: active

CCSAP (GeneID 126731) [SID160756526]
- G2 robust z-score: 0.821
- outcome: inactive

CCSAP (GeneID 126731) [SID160756527]
- G2 robust z-score: 0.127
- outcome: inactive

CCSAP (GeneID 126731) [SID160756528]
- G2 robust z-score: -0.00926
- outcome: inactive

CFAP184 (GeneID 257236) [SID160762549]
- G2 robust z-score: -0.25
- outcome: inactive

CFAP184 (GeneID 257236) [SID160762550]
- G2 robust z-score: -0.764
- outcome: inactive

CFAP184 (GeneID 257236) [SID160762552]
- G2 robust z-score: -0.623
- outcome: inactive

ZNF75D (GeneID 7626) [SID160719101]
- G2 robust z-score: 0.598
- outcome: inactive

ZNF75D (GeneID 7626) [SID160719102]
- G2 robust z-score: 1.28
- outcome: inactive

ZNF75D (GeneID 7626) [SID160719103]
- G2 robust z-score: 0.26
- outcome: inactive

TAGAP (GeneID 117289) [SID160755582]
- G2 robust z-score: 0.00175
- outcome: inactive

TAGAP (GeneID 117289) [SID160755583]
- G2 robust z-score: 0.682
- outcome: inactive

TAGAP (GeneID 117289) [SID160755584]
- G2 robust z-score: 3.05
- outcome: inactive
